Source: article PMC11797554, “Chemical genetics reveals cross-regulation of plant developmental signaling by the immune peptide-receptor pathway” (Science Advances, 2024)
Results are given in words; binding and its absence hold for the method and conditions named. In cells and extracts the contact can be indirect. Some binding calls cover weakened binding; strength is not graded here. Where a sequence is shown, tags or fusion partners need not be part of it.

Amino acid sequences for entries named in this document (tags omitted).
UniProt Q39026: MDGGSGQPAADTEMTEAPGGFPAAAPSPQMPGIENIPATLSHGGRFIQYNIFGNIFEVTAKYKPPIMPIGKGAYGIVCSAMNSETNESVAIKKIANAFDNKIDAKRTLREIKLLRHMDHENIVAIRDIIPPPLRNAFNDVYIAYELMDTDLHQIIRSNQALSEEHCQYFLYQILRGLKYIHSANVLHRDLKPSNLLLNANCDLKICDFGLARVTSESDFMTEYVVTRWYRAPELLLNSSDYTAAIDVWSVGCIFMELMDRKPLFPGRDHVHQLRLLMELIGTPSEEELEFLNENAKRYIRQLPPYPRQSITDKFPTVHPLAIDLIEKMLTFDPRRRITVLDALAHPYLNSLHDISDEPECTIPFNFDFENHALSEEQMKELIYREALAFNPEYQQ

Target: T1, SCRM-nYFP (Arabidopsis) (UniProt Q9LSE2)
T1 sequence: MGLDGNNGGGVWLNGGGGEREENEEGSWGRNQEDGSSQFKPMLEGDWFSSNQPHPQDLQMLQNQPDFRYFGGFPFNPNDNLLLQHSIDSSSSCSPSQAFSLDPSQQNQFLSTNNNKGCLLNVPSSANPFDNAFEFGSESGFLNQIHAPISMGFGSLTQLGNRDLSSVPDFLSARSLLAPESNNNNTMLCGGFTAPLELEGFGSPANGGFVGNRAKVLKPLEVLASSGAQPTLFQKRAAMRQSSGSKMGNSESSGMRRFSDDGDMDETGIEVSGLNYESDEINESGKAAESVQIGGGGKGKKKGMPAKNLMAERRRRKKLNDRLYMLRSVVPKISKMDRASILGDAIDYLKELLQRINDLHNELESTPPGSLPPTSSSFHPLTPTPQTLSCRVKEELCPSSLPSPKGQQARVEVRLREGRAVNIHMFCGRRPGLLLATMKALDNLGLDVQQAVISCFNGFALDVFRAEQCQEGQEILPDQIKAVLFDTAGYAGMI
Assay: split reporter; ratiometric BiFC (2in1 system, pBiFCt-2in1-CC) in N. benthamiana leaf epidermis; MPK6-cYFP and SCRM-nYFP with 35S::RFP on one plasmid; YFP/RFP ratio in nuclei; mock or 100 μM kC9, 2 days

Q: “MPK6-cYFP (from UniProt Q39026 1-395) (enzyme)” was tested. Which binding did it give?
A: The binding was “binds”.
